Experimental data: PubChem BioAssay AID1159578 (Peter MacCallum Cancer Centre, 2015)

Test: 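Genome-wide hunt for genes controlling movement of lymphatic endothelial cells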 (primary screen)
Cell system: human lymphatic endothelial cells
Knock-down reagent: siRNA pool against human genes, 40 nM
Duration: 48 h after transfection
Read-out: 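High-content imaging of dye-stained cells in a scratch assay measures filled wound area and nuclei per well; duplicate means given as ratio to mock and robust z-score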
Reading the numbers: migration robust z-score: higher = faster migration into the scratch; migration relative to mock: higher = more scratch area covered than mock; nuclei per well: higher = more cells in the well
Call rule: 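Pools averaging fewer than 3300 nuclei are never called; remaining pools count as changed when migration robust z lies outside -2 to 2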
Meaning of the calls: active = migration changed; inactive = no migration change, or too few cells
In all, the deposit lists about 18,000 reagents; shown is a random part of them. Over the whole deposit, about 1,030 (5.7%) are marked active. 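Inactive calls also include pools with fewer than 3300 nuclei, whose migration was not assessed.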 Raw values vary from plate to plate and are shown uncorrected. A number with no mark means an inactive call. Reagent sequences are not shown.

no.	gene	migration robust z-score	migration class with cell-count check	migration relative to mock	nuclei per well, duplicate mean
1	RHOXF2	0.57	migration z between -2 and 2; enough cells	1.04	4968
2	ATAD1	0.1	migration z between -2 and 2; enough cells	0.82	5766
3	KCNJ12	0.18	migration z between -2 and 2; enough cells	0.84	5285
4	SELE	1.25	migration z between -2 and 2; enough cells	1.21	5766
5	TRIM33	-0.49	migration z between -2 and 2; enough cells	0.71	5076
6	SH3PXD2A	1.2	migration z between -2 and 2; enough cells	1.2	6309
7	GOLGA1	-0.32	migration z between -2 and 2; enough cells	0.8	5036
8	PCDHAC2	-1.64	migration z between -2 and 2; enough cells	0.46	5718
9	C3orf36	0.13	migration z between -2 and 2; enough cells	0.92	4827
10	DRC7	-1.4	migration z between -2 and 2; enough cells	0.52	6460
11	PPP1R9A	0.23	migration z between -2 and 2; enough cells	0.95	5738
12	ZBTB40	0.81	migration z between -2 and 2; enough cells	1.09	4185
13	PPFIA4	0.05	migration z between -2 and 2; enough cells	0.82	5983
14	ITGB6	-0.08	migration z between -2 and 2; enough cells	0.79	4544
15	LYRM4	-1.94	migration z between -2 and 2; enough cells	0.38	6190
16	SREK1IP1	0.36	migration z between -2 and 2; enough cells	0.98	4105
17	CDC37L1	1.1	migration z between -2 and 2; enough cells	1.17	6268
18	LRTM1	-0.49	migration z between -2 and 2; enough cells	0.75	5048
19	HGH1	1.74	migration z between -2 and 2; enough cells	1.33	4356
20	CASTOR1	-0.02	migration z between -2 and 2; enough cells	0.88	5752
21	KCNK12	-0.9	migration z between -2 and 2; enough cells	0.63	4927
22	SOHLH2	0.12	migration z between -2 and 2; enough cells	0.92	6101
23	C2orf42	0.82	migration z between -2 and 2; enough cells	1.1	7144
24	AIF1L	0.88	migration z between -2 and 2; enough cells	1.12	5820
25	ZNF548	0.42	migration z between -2 and 2; enough cells	0.99	5690
26	WASHC4	0.16	migration z between -2 and 2; enough cells	0.93	5064
27	SYT10	-1.72	migration z between -2 and 2; enough cells	0.44	5382
28	GNMT	0.83	migration z between -2 and 2; enough cells	0.96	5612
29	WIPF1	-0.04	migration z between -2 and 2; enough cells	0.88	5269
30	ENTPD6	1.06	migration z between -2 and 2; enough cells	1.01	4936
31	BRAP	-0.23	migration z between -2 and 2; enough cells	0.76	6468
32	HAUS7	-0.76	under 3300 nuclei; migration not judged	0.68	2385
33	SMN1	1.29	migration z between -2 and 2; enough cells	1.22	6992
34	KLHL1	-2.1 (active)	migration z below -2; enough cells	0.33	3576
35	PXK	-0.08	migration z between -2 and 2; enough cells	0.79	4696
36	REXO1L1P	-0.1	migration z between -2 and 2; enough cells	0.78	5132
37	ITGB7	-0.78	migration z between -2 and 2; enough cells	0.66	5266
38	BCAM	-0.02	migration z between -2 and 2; enough cells	0.8	6478
39	DAP	-0.04	migration z between -2 and 2; enough cells	0.88	4681
40	CYTH3	-0.78	migration z between -2 and 2; enough cells	0.68	4982
41	TMEM263	1.06	migration z between -2 and 2; enough cells	1.16	5104
42	C11orf87	-1.64	migration z between -2 and 2; enough cells	0.46	5038
43	TNFAIP6	0.03	migration z between -2 and 2; enough cells	0.9	5898
44	FAM217A	-0.87	migration z between -2 and 2; enough cells	0.66	5139
45	ZSWIM1	-0.7	migration z between -2 and 2; enough cells	0.7	3819
46	DHX34	1.56	migration z between -2 and 2; enough cells	1.1	5794
47	YIPF3	-0.9	migration z between -2 and 2; enough cells	0.66	5155
48	SYT11	0.29	migration z between -2 and 2; enough cells	0.96	6125
49	ADAMTS13	0.13	migration z between -2 and 2; enough cells	0.83	5648
50	POGLUT1	1.98	migration z between -2 and 2; enough cells	1.4	5326
51	ELK1	-0.57	migration z between -2 and 2; enough cells	0.7	5123
52	ACACB	1.53	migration z between -2 and 2; enough cells	1.1	6664
53	SLC60A2	3 (active)	migration z above 2; enough cells	1.66	7042
54	ZFP69B	-1.5	migration z between -2 and 2; enough cells	0.5	5571
55	ING1	-1.06	migration z between -2 and 2; enough cells	0.6	3504
56	TUBB7P	-1.4	migration z between -2 and 2; enough cells	0.54	5414
57	F2R	1.17	migration z between -2 and 2; enough cells	1.03	5666
